We go through two molecules from paper PMC11127904.

Amino acid sequences for entries named in this document (tags omitted).
UniProt Q12778: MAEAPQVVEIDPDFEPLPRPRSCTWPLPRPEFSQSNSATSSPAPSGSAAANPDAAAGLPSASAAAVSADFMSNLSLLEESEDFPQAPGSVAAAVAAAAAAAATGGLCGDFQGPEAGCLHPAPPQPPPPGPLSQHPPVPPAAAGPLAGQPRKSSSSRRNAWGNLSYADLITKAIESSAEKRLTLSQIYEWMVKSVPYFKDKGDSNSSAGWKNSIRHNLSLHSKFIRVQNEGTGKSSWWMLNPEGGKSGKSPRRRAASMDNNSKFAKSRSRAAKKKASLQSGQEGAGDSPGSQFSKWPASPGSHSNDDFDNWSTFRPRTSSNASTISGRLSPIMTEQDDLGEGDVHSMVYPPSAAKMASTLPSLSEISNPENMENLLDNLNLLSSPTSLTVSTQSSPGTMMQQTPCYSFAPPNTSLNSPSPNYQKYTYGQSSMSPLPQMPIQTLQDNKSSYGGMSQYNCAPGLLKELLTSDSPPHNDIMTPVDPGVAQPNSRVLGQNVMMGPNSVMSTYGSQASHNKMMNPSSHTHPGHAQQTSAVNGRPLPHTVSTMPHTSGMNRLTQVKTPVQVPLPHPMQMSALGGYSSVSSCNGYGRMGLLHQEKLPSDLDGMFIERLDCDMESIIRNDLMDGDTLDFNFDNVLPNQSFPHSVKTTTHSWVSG

The target of assay [1] is HA-tagged FOXO1 (Forkhead box O1) (human) (UniProt Q12778). Kind of assay: co-IP; Flag-tagged NEK2 and HA-tagged FOXO1 co-transfected into HEK293T cells; lysate incubated with antibodies and protein A/G beads at 4 °C overnight, beads washed five times, Western blot; normal mouse or rabbit IgG as negative control.
In assay [2] the target is endogenous FOXO1 (human (endogenous in EESC)) (UniProt Q12778). Kind of assay: co-IP; endogenous proteins in EESC cell lysate; lysate incubated with antibodies and protein A/G beads at 4 °C overnight, beads washed five times, Western blot; normal mouse or rabbit IgG as negative control.

These are yes or no findings as the source states them, for the method shown. In cells and extracts the contact can be indirect. Some results given as binding are weak or reduced against the parent protein; the word gives no strength. For some assays here: Tags and fused reporters may be left off the sequences shown.

B1: Flag-tagged NEK2 (Never in Mitosis (NIMA) Related Kinase 2) (enzyme, UniProt P51955 1-445)
chain: MPSRAEDYEVLYTIGTGSYGRCQKIRRKSDGKILVWKELDYGSMTEAEKQMLVSEVNLLRELKHPNIVRYYDRIIDRTNTTLYIVMEYCEGGDLASVITKGTKERQYLDEEFVLRVMTQLTLALKECHRRSDGGHTVLHRDLKPANVFLDGKQNVKLGDFGLARILNHDTSFAKTFVGTPYYMSPEQMNRMSYNEKSDIWSLGCLLYELCALMPPFTAFSQKELAGKIREGKFRRIPYRYSDELNEIITRMLNLKDYHRPSVEEILENPLIADLVADEQRRNLERRGRQLGEPEKSQDSSPVLSELKLKEIQLQERERALKAREERLEQKEQELCVRERLAEDKLARAENLLKNYSLLKERKFLSLASNPELLNLPSSVIKKKVHFSGESKENIMRSENSESQLTSKSKCKDLKKRLHAAQLRAQALSDIEKNYQLKSRQILGMR
As to B1, the binding result in assay [1] was “binds”.

B2: endogenous NEK2 (enzyme, UniProt P51955 1-445)
chain: B1 chain
Regarding B2, the binding result in assay [2] is on record as “binds”.
